Measurements reported in paper PMC8542050.
No constants are given. Whether binding was seen depends on the method and setting. In cells and extracts the contact can be indirect. Some binding calls cover weakened binding; strength is not graded here. Where a sequence is shown, tags or fusion partners need not be part of it.

Amino acid sequences for entries named in this document (tags omitted).
UniProt Q96EB6: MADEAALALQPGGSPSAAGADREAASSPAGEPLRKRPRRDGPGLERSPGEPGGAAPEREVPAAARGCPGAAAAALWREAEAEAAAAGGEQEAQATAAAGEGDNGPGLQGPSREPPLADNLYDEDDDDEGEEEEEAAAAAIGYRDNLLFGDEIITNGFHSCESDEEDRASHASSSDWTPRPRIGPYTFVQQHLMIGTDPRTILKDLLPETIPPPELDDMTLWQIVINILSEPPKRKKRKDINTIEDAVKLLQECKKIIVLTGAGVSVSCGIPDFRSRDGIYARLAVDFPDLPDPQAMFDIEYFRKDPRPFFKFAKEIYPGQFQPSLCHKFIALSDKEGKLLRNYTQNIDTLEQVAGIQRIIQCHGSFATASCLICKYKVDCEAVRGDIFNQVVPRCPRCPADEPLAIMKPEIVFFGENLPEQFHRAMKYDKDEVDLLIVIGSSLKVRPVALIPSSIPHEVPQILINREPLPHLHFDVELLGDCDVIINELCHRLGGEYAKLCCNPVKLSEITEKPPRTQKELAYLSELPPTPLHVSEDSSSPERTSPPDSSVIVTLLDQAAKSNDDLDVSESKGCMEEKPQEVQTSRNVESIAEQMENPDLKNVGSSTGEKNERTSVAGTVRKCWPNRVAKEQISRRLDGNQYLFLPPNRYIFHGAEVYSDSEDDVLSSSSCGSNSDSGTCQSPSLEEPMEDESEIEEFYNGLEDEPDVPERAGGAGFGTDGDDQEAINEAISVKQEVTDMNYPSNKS

Target: Myc-tagged SIRT1 (UniProt Q96EB6)
Assay: co-IP; FLAG-tagged HES5 and Myc-tagged SIRT1 co-transfected into HEK293 cells; whole-cell lysates in RIPA buffer (50 mM Tris pH 7.4, 150 mM NaCl, 1% NP40, 0.5% sodium deoxycholate, 0.1% SDS); immunoprecipitation with anti-FLAG, anti-MYC or IgG overnight, Protein A/G-plus agarose beads; western blotting

B1: FLAG-tagged HES5 (protein, UniProt P70120 1-167)
chain: MAPSTVAVEMLSPKEKNRLRKPVVEKMRRDRINSSIEQLKLLLEQEFARHQPNSKLEKADILEMAVSYLKHSKAFAAAAGPKSLHQDYSEGYSWCLQEAVQFLTLHAASDTQMKLLYHFQRPPAPAAPAKEPPAPGAAPQPARSSAKAAAAAVSTSRQPACGLWRPW
For B1, the binding was “binds”.
